By UniProt entry, the sequences of proteins in these tests, tags left out. Where a name states a change or a piece, a line headed by the entry shows the natural chain unless it says otherwise.
UniProt P15056: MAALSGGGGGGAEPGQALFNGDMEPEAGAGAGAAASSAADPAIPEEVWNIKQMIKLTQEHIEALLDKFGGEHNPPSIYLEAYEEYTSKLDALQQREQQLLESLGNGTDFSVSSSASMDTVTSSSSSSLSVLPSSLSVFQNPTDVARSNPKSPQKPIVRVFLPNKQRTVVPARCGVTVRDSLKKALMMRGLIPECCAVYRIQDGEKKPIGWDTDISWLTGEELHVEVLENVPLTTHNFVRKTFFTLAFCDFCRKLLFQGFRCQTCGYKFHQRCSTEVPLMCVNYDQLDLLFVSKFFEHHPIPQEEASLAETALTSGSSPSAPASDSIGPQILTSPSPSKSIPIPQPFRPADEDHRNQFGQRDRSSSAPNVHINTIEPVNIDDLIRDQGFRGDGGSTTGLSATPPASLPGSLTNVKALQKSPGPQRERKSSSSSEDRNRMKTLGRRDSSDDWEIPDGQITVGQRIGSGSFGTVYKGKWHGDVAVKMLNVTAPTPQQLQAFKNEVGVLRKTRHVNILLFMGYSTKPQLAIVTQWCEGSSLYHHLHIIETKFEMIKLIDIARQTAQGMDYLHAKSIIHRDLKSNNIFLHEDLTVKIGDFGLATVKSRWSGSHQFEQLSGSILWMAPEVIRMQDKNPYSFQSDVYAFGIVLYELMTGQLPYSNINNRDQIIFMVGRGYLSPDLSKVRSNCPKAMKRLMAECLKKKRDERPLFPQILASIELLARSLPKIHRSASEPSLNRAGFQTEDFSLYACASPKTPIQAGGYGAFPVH
UniProt Q8C863: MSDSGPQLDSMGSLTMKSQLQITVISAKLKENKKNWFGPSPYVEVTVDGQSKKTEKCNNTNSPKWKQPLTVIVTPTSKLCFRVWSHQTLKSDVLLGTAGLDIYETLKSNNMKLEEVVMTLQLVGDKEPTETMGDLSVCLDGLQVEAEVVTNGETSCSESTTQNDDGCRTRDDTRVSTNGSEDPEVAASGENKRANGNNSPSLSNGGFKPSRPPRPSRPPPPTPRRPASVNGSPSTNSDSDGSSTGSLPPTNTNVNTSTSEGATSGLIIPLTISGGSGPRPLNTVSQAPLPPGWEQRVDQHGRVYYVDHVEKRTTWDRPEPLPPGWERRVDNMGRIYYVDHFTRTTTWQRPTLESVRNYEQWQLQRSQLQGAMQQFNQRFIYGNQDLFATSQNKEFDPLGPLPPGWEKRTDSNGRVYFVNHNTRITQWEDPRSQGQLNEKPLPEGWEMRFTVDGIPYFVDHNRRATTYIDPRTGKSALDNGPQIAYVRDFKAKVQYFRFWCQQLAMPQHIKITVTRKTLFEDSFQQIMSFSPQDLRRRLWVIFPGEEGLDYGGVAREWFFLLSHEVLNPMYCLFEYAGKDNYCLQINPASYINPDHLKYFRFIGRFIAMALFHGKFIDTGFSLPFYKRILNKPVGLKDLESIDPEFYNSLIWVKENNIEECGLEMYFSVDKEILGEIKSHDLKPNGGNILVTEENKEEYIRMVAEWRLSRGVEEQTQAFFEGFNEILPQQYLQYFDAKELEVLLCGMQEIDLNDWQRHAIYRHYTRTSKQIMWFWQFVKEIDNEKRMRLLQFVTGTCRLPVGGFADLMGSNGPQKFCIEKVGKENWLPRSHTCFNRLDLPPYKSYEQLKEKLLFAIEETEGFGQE

In PMC6478693:

What was measured:
Assay in all cases: co-IP; 293T cells transfected with HA-ITCH and Flag-RAF or Flag-BRAF constructs; 10 µM MG132 for 12 h before harvest; lysis in EBC buffer, washes in NETN buffer
[1] = target: Flag-BRAF mutated in the P655 motif (UniProt P15056)
[2] = target: Flag-BRAF mutated in the P631/F634 motif (UniProt P15056)
[3] = target: Flag-BRAF mutated in the P490/P492 motif (UniProt P15056)
[4] = target: Flag-BRAF mutated in the P705/P708 motif (UniProt P15056)
[5] = target: Flag-BRAF mutated in the P731 motif (UniProt P15056)

Measured: binding

HA-ITCH (from UniProt Q8C863 1-864) (enzyme)
binds: [1] | [2] | [3] | [4] | [5]

No constants are given. Whether binding was seen depends on the method and setting. In cells and extracts the contact can be indirect. A result given as binding can be weak or reduced; the word gives no strength.
